Source: patent US8410153B2, “Naphthalene isoxazoline invertebrate pest control agents” (E.I. du Pont de Nemours and Company, priority 2007, dated 2013)
Some results were stated once for a whole list of compounds, not compound by compound. At least one structure is not confirmed: it was looked up by name or label, or the drawing left a doubt.

Experiments:
Format in all cases: in vivo
[1] = test system: green peach aphid (Myzus persicae); assay: Test F: control of green peach aphid on radish plant, contact and/or systemic; conditions: sprayed at 250 ppm; held 6 days
[2] = test system: cat flea (Ctenocephalides felis); assay: Test J: control of cat flea on orally dosed mouse, fleas applied twenty-four hours after dosing; conditions: CD-1 mouse, oral 10 mg/kg, evaluated 48 hours after flea application
[3] = test system: potato leafhopper (Empoasca fabae); assay: Test C: control of potato leafhopper on Soleil bean plant, contact and/or systemic; conditions: held 6 days
[4] = test system: cat flea (Ctenocephalides felis); assay: Test I: control of cat flea on orally dosed mouse, fleas applied two hours after dosing; conditions: CD-1 mouse, oral 10 mg/kg, evaluated 48 hours after flea application
[5] = test system: cotton melon aphid (Aphis gossypii); assay: Test G: control of cotton melon aphid on cotton plant, contact and/or systemic; conditions: sprayed at 250 ppm
[6] = test system: silverleaf whitefly (Bemisia tabaci); assay: Test H: control of silverleaf whitefly nymphs on cotton plant; conditions: sprayed at 250 ppm; held 6 days; 2nd and 3rd instar nymphs
[7] = test system: cat flea (Ctenocephalides felis); assay: Test L: control of cat flea, treated filter paper in tube; conditions: 20 μL of 500 ppm solution on filter paper; evaluated 48 hours later

Row | Compound | mortality [1] | flea mortality [2] | control efficacy: mortality ([3]; sprayed at 50 ppm) [%] | control efficacy: mortality ([3]; sprayed at 250 ppm) [%] | flea mortality [4] | mortality [5] | mortality [6] | flea mortality [7]
1 | C[S+]([O-])CCNC(=O)c1ccc(C2=NOC(c3cc(F)cc(C(F)(F)F)c3)(C(F)(F)F)C2)c2ccccc12 (mixture of isomers) [Compound 133] | at least 80% | at least 50% | ≥ 80 | ≥ 80 | at least 50% | at least 80% | – | –
2 | COCC(C)NC(=O)c1ccc(C2=NOC(c3cccc(C(F)(F)F)c3)(C(F)(F)F)C2)c2ccccc12 (mixture of isomers) [Compound 47] | at least 80% | – | ≥ 80 | ≥ 80 | – | at least 80% | at least 80% | –
3 | O=C(CNC(=O)c1ccc(C2=NOC(c3cc(Br)cc(Br)c3)(C(F)(F)F)C2)c2ccccc12)NCC(F)(F)F (centres unmarked) [Compound 23] | at least 80% | at least 50% | ≥ 80 | ≥ 80 | at least 50% | at least 80% | – | –
4 | CC(C)NC(=O)CNC(=O)c1ccc(C2=NOC(c3cccc(C(F)(F)F)c3)(C(F)(F)F)C2)c2ccccc12 (racemic) [Compound 38] | at least 80% | – | ≥ 80 | ≥ 80 | at least 50% | at least 80% | – | –
5 | O=C(CNC(=O)c1ccc(C2=NOC(c3cc(Cl)cc(OC(F)(F)F)c3)(C(F)(F)F)C2)c2ccccc12)NCC(F)(F)F (racemic) [Compound 136] | at least 80% | at least 50% | ≥ 80 | – | at least 50% | – | at least 80% | –
6 | O=C(NCCO)c1ccc(C2=NOC(c3cc(C(F)(F)F)cc(C(F)(F)F)c3)(C(F)(F)F)C2)c2ccccc12 (centres unmarked) [Compound 69] | – | – | – | – | at least 50% | at least 80% | – | –
7 | COCCNC(=O)c1ccc(C2=NOC(c3cc(Cl)cc(Cl)c3)(C(F)(F)F)C2)c2ccccc12 (centres unmarked) [Compound 28] | – | – | – | – | – | – | – | at least 50%
8 | CNC(=O)C(C)NC(=O)c1ccc(C2=NOC(c3cc(C(F)(F)F)cc(C(F)(F)F)c3)(C(F)(F)F)C2)c2ccccc12 (centres unmarked) [Compound 86] | at least 80% | at least 50% | ≥ 80 | ≥ 80 | at least 50% | – | at least 80% | –
9 | CC(C)SCCNC(=O)c1ccc(C2=NOC(c3cccc(C(F)(F)F)c3)(C(F)(F)F)C2)c2ccccc12 (racemic) [Compound 55] | – | – | ≥ 80 | ≥ 80 | – | at least 80% | – | –
10 | O=C(CNC(=O)c1ccc(C2=NOC(c3cc(Cl)cc(Cl)c3)(C(F)(F)F)C2)c2ccccc12)NCC(F)(F)C(F)(F)C(F)(F)F (centres unmarked) [Compound 13] | – | – | ≥ 80 | ≥ 80 | – | – | – | at least 50%
11 | CCCNC(=O)CNC(=O)c1ccc(C2=NOC(c3cc(Cl)cc(C(F)(F)F)c3)(C(F)(F)F)C2)c2ccccc12 (centres unmarked) [Compound 117] | at least 80% | – | ≥ 80 | ≥ 80 | at least 50% | at least 80% | at least 80% | –
12 | CSCCCNC(=O)c1ccc(C2=NOC(c3cc(Cl)cc(Cl)c3)(C(F)(F)F)C2)c2ccccc12 (centres unmarked) [Compound 22] | at least 80% | – | ≥ 80 | ≥ 80 | at least 50% | – | – | at least 50%
13 | CCCNC(=O)CNC(=O)c1ccc(C2=NOC(c3cc(C(F)(F)F)cc(C(F)(F)F)c3)(C(F)(F)F)C2)c2ccccc12 (centres unmarked) [Compound 101] | at least 80% | at least 50% | ≥ 80 | ≥ 80 | at least 50% | at least 80% | at least 80% | –
14 | CC(NC(=O)CNC(=O)c1ccc(C2=NOC(c3cc(Cl)cc(Cl)c3)(C(F)(F)F)C2)c2ccccc12)C(F)(F)F (mixture of isomers) [Compound 122] | at least 80% | – | ≥ 80 | ≥ 80 | – | – | at least 80% | –
15 | CC(C)CNC(=O)CNC(=O)c1ccc(C2=NOC(c3cc(Cl)cc(Cl)c3)(C(F)(F)F)C2)c2ccccc12 (centres unmarked) [Compound 6] | at least 80% | – | – | – | – | – | – | at least 50%
16 | CCNC(=O)CNC(=O)c1ccc(C2=NOC(c3cc(Br)cc(C(F)(F)F)c3)(C(F)(F)F)C2)c2ccccc12 (racemic) [Compound 144] | at least 80% | – | ≥ 80 | – | – | at least 80% | – | –

Row | Compound | mortality [1] | flea mortality [2] | control efficacy: mortality ([3]; sprayed at 50 ppm) [%] | control efficacy: mortality ([3]; sprayed at 250 ppm) [%] | flea mortality [4] | mortality [5] | mortality [6] | flea mortality [7]
17 | C[S+]([O-])CCNC(=O)c1ccc(C2=NOC(c3cc(Cl)cc(Cl)c3)(C(F)(F)F)C2)c2ccccc12 (centres unmarked) [Compound 18] | – | at least 50% | ≥ 80 | ≥ 80 | at least 50% | – | – | at least 50%
18 | C[S+]([O-])CCNC(=O)c1ccc(C2=NOC(c3cc(C(F)(F)F)cc(C(F)(F)F)c3)(C(F)(F)F)C2)c2ccccc12 (centres unmarked) [Compound 79] | at least 80% | at least 50% | ≥ 80 | ≥ 80 | at least 50% | at least 80% | – | –
19 | CCCNC(=O)C(C)NC(=O)c1ccc(C2=NOC(c3cc(C(F)(F)F)cc(C(F)(F)F)c3)(C(F)(F)F)C2)c2ccccc12 (mixture of isomers) [Compound 84] | – | at least 50% | ≥ 80 | ≥ 80 | at least 50% | at least 80% | at least 80% | –
20 | CNC(=O)CNC(=O)c1ccc(C2=NOC(c3cc(Br)cc(C(F)(F)F)c3)(C(F)(F)F)C2)c2ccccc12 (racemic) [Compound 143] | at least 80% | – | ≥ 80 | – | – | at least 80% | – | –
21 | CNC(=O)CNC(=O)c1ccc(C2=NOC(c3cc(Cl)cc(C(F)(F)F)c3)(C(F)(F)F)C2)c2ccccc12 (centres unmarked) [Compound 116] | at least 80% | at least 50% | ≥ 80 | – | at least 50% | – | – | –
22 | CC(C)NC(=O)CNC(=O)c1ccc(C2=NOC(c3cc(Br)cc(C(F)(F)F)c3)(C(F)(F)F)C2)c2ccccc12 (racemic) [Compound 53] | at least 80% | at least 50% | ≥ 80 | ≥ 80 | at least 50% | at least 80% | at least 80% | –
23 | CSCC(C)NC(=O)c1ccc(C2=NOC(c3cc(Cl)cc(Cl)c3)(C(F)(F)F)C2)c2ccccc12 (mixture of isomers) [Compound 30] | at least 80% | – | – | – | – | at least 80% | – | –
24 | CCSCCNC(=O)c1ccc(C2=NOC(c3cc(C(F)(F)F)cc(C(F)(F)F)c3)(C(F)(F)F)C2)c2ccccc12 (centres unmarked) [Compound 92] | at least 80% | at least 50% | ≥ 80 | ≥ 80 | at least 50% | – | – | –
25 | O=C(CNC(=O)c1ccc(C2=NOC(c3cc(Cl)cc(Cl)c3)(C(F)(F)F)C2)c2ccccc12)NCC(F)(F)C(F)(F)F (centres unmarked) [Compound 14] | – | – | ≥ 80 | ≥ 80 | – | – | – | at least 50%
26 | CC[S+]([O-])CCNC(=O)c1ccc(C2=NOC(c3cc(C(F)(F)F)cc(C(F)(F)F)c3)(C(F)(F)F)C2)c2ccccc12 (centres unmarked) [Compound 98] | at least 80% | at least 50% | ≥ 80 | ≥ 80 | at least 50% | – | – | –
27 | O=C(CNC(=O)c1ccc(C2=NOC(c3cccc(Br)c3)(C(F)(F)F)C2)c2ccccc12)NCC(F)(F)F (centres unmarked) [Compound 70] | – | at least 50% | – | – | at least 50% | – | at least 80% | –
28 | CSCC(C)NC(=O)c1ccc(C2=NOC(c3cc(C(F)(F)F)cc(C(F)(F)F)c3)(C(F)(F)F)C2)c2ccccc12 (mixture of isomers) [Compound 60] | at least 80% | at least 50% | – | – | – | at least 80% | – | –
29 | C[S+]([O-])CCNC(=O)c1ccc(C2=NOC(c3cc(Cl)cc(C(F)(F)F)c3)(C(F)(F)F)C2)c2ccccc12 (centres unmarked) [Compound 114] | at least 80% | at least 50% | ≥ 80 | – | at least 50% | – | – | –
30 | CC(NC(=O)c1ccc(C2=NOC(c3cc(C(F)(F)F)cc(C(F)(F)F)c3)(C(F)(F)F)C2)c2ccccc12)C(=O)NCC(F)(F)F (centres unmarked) [Compound 85] | – | at least 50% | ≥ 80 | ≥ 80 | at least 50% | – | at least 80% | –
31 | O=C(CNC(=O)c1ccc(C2=NOC(c3cc(F)cc(C(F)(F)F)c3)(C(F)(F)F)C2)c2ccccc12)NCC(F)(F)F (racemic) [Compound 135] | at least 80% | at least 50% | ≥ 80 | ≥ 80 | at least 50% | at least 80% | at least 80% | –
